Experimental data taken from PMC9107693.
These are yes or no findings as the source states them, for the method shown. Binding seen in cells or lysates may run through a third protein. Some entries that bind do so weakly or less than the wild type.

By UniProt entry, the sequences of proteins in these tests, tags left out.
UniProt Q6PDQ2: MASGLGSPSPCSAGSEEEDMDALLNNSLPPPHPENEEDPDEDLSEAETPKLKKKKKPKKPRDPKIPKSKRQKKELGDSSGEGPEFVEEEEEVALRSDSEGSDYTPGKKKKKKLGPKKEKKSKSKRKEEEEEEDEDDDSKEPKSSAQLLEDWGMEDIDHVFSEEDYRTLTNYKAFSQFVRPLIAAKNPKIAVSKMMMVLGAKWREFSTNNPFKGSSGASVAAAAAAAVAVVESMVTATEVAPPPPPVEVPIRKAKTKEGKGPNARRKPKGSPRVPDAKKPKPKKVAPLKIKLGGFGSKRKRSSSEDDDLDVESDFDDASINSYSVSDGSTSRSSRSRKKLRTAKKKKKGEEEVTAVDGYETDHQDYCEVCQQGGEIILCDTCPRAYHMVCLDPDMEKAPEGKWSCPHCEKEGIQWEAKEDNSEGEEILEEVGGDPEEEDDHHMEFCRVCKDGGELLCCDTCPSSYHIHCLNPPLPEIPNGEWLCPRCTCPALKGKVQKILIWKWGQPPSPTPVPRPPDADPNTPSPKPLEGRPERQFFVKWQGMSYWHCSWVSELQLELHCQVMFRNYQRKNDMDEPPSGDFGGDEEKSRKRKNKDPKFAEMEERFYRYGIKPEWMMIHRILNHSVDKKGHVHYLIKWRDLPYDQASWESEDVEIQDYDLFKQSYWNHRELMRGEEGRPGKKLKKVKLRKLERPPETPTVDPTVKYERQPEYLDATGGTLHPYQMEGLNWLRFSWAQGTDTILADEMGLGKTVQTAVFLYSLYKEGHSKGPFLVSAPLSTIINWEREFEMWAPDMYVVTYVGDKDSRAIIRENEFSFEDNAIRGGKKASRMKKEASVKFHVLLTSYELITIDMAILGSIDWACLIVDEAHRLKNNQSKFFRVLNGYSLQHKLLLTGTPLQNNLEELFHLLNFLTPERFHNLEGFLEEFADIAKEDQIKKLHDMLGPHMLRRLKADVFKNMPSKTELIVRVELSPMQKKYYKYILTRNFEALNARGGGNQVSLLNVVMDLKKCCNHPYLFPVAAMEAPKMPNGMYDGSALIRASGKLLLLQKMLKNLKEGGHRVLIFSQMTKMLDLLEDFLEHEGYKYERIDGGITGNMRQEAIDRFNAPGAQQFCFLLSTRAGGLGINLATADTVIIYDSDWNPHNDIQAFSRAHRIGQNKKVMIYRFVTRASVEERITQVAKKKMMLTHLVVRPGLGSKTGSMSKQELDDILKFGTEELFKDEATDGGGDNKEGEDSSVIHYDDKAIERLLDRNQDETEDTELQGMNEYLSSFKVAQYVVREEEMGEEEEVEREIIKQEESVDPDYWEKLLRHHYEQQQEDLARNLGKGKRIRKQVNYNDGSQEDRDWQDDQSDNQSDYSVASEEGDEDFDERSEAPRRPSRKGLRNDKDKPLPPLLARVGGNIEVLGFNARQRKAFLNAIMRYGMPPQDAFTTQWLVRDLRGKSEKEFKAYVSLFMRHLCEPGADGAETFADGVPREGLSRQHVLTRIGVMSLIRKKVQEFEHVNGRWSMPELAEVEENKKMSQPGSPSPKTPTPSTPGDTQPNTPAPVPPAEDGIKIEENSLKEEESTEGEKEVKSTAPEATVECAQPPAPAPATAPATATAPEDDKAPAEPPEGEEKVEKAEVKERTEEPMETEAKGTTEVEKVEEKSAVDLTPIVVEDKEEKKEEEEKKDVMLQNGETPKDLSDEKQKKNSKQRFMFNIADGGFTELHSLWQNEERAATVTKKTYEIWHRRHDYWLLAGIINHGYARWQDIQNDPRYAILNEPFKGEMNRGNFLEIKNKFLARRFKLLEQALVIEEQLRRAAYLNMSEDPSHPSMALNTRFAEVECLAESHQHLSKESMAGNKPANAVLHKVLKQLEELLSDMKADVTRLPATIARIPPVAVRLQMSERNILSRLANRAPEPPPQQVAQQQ
UniProt Q8K4B0: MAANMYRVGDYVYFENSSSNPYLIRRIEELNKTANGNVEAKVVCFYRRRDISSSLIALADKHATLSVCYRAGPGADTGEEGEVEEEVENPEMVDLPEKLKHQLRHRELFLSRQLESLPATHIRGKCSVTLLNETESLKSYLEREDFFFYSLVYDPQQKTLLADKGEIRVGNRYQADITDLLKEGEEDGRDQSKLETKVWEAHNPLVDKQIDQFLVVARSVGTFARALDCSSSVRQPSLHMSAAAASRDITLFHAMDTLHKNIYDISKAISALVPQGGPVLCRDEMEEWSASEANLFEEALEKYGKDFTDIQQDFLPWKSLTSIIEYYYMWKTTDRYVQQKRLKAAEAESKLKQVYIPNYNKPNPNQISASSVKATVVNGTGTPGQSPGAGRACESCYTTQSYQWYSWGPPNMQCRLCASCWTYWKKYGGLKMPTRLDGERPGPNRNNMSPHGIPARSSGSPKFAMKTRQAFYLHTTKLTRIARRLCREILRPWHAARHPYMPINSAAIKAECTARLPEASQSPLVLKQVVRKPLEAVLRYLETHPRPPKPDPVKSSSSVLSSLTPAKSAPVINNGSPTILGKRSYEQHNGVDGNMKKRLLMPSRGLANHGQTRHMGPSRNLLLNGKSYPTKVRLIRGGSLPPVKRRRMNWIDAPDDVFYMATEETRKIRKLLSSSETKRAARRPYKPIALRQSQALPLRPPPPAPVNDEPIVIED
UniProt P70288: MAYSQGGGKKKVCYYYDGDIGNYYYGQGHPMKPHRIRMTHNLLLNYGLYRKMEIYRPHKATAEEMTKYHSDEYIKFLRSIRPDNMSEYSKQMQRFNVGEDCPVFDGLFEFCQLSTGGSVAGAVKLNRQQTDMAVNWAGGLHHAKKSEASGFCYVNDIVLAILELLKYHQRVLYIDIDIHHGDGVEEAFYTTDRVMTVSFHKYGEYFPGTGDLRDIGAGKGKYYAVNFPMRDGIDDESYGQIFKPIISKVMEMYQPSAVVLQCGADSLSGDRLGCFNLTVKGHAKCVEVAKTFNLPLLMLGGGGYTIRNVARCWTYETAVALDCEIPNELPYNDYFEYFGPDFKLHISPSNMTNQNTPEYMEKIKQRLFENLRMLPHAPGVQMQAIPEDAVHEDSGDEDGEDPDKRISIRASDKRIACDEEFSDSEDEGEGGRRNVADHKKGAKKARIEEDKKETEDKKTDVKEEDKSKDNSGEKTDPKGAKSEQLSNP

Legend:
[1] = molecular target: Chd4 (chromodomain-helicase-DNA-binding 4) (mouse (endogenous in testis cells)) (UniProt Q6PDQ2); experiment: co-IP; anti-Chd4 as bait, non-specific IgG as bait control; enriched fractions of Thy1.2 and c-Kit spermatogonia together, and the flow-through; detection by western blot
[2] = molecular target: Chd4 (chromodomain-helicase-DNA-binding 4) (mouse (endogenous in testis cells)) (UniProt Q6PDQ2); experiment: co-IP; anti-Chd4 immunoprecipitation from testis lysates of wild type or ddx4-chd3-/- mice (RIPA buffer, 1 mg protein, protein G magnetic beads); detection by western blot

Mta1 (from UniProt Q8K4B0 1-715)
binding [1]: binds

Hdac2a (from UniProt P70288 1-488)
binding [2]: binds | binding [1]: binds
